Test results from US10398786B2, “Therapeutic gene cocktail for heart regeneration” (Academia Sinica, priority 2015, dated 2019).
At least one structure is not confirmed: it was looked up by name or label, or the drawing left a doubt.

Test system: adult CMs of OSKM transgenic mice
Experiment: doxycycline injection into OSKM transgenic mice, adult CMs isolated after two days
Format: in vivo
Protocol: Reverse transcription were completed following the protocol of SuperScript III Reverse-Transcriptase kit (Life Technology). SYBR Green Real-Time PCR master mixes were used to quantify each gene expression, and GAPDH were performed for normalization.
Adult ventricular CMs were isolated from male mice on a Langendorff apparatus. The hearts were removed from the anaesthetized mice after heparinization for 10 mins, and then were cannulated for retrograde perfusion with Ca^2+-free Tyrode solution (NaCl 120.4 mmol/L, KCl 14.7 mmol/L, KH2PO4 0.6 mmol/L, Na2HPO4 0.6 mmol/L, MgSO4 1.2 mmol/L, HEPES 1.2 mmol/L, NaHCO3 4.6 mmol/L, Taurine 30 mmol/L, BDM 10 mmol/L, Glucose 5.5 mmol/L).
After 3-minutes of perfusion, the solution mixed with Ca^2+-free Tyrode solution supplemented with collagenase B (0.4 mg/g body weight, Roche), collagenase D (0.3 mg/g body weight, Roche) and protease type XIV (0.05 mg/g body weight, Sigma-Aldrich) were used to digest the hearts. After digestion, the ventricles were cut from the cannula and teased into small pieces in the digestion solution neutralized by the Ca^2+-free Tyrode solution containing 10% FBS. Adult CMs were dissociated from the digested tissues by gentle pipetting and collected after removing the un-digested tissues by filtering through a nylon mesh of 250 μm pore size.
Changes in the expression of Oct4, FoxM1, Id1, and Jnk3 were confirmed in vivo by injecting doxycycline into OSKM transgenic mice and isolating adult CMs after two days (FIG. 5A). Overexpression of Oct4 was confirmed for the successful treatment of doxycycline injection in vivo (FIG. 5B).

In the case of `C[C@H]1c2cccc(O)c2C(=O)C2=C(O)[C@]3(O)C(=O)C(C(N)=O)=C(O)[C@@H](N(C)C)[C@@H]3[C@@H](O)[C@@H]21` [doxycycline], the FoxM1 expression (compared to control CMs) is reported as “higher expression”, the Id1 expression (compared to control CMs) is reported as “higher expression” and the Jnk3 expression (compared to control CMs) is reported as “significantly down-regulated”. The Oct4 expression (doxycycline-injected versus control) was “Overexpression”.
